{"sequences": {"note": "Protein sequences, listed by entry. Tags and fused reporters are not part of them.", "UniProt Q9Y6X1": "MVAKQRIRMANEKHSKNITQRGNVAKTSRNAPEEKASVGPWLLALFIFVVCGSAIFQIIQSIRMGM"}, "source": "paper PMC6783944", "key": {"[1]": {"molecular_target": "HA-tagged DENV-2 NS4B (pLKO-AS2-NS4B-HA) (dengue virus type 2 (DENV-2), strain 16681) (UniProt P29990)", "experiment": "co-IP"}, "[2]": {"molecular_target": "Flag-tagged SERP1 (pLKO-AS2-Flag-SERP1) (human) (UniProt Q9Y6X1)", "experiment": "co-IP"}, "[3]": {"molecular_target": "NS2B-LgBit (DENV-2 NS2B fused to the large BiT of NanoLuc luciferase) (dengue virus type 2 (DENV-2), strain 16681) (UniProt P29990)", "experiment": "split reporter"}}, "note": "No constants are given. Whether binding was seen depends on the method and setting. Binding seen in cells or lysates may run through a third protein. Some binding calls cover weakened binding; strength is not graded here."}
{"substance": "Flag-tagged SERP1 (pLKO-AS2-Flag-SERP1) (from UniProt Q9Y6X1 1-66)", "values": [{"measurement": "binding", "setting": "[1]", "result": "binds"}]}
{"substance": "HA-tagged DENV-2 NS4B (pLKO-AS2-NS4B-HA) (from UniProt P29990 2244-2491)", "values": [{"measurement": "binding", "setting": "[2]", "result": "binds"}]}
{"substance": "SmBit-SERP1 (SERP1 fused to the small BiT of NanoLuc luciferase) (from UniProt Q9Y6X1 1-66)", "values": [{"measurement": "binding", "setting": "[3]", "result": "no binding"}]}
